Results of single-concentration screens

Protein sequences, listed by entry. Tags and fused reporters are not part of them. Residues count along the entry.
UniProt P9WPC5, whole entry: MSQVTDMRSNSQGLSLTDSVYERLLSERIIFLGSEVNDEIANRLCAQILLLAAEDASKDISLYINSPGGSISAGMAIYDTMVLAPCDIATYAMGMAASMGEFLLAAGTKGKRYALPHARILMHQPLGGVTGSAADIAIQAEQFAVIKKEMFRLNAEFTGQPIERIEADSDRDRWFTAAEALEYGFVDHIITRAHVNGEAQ
UniProt P9WPC3, whole entry partner: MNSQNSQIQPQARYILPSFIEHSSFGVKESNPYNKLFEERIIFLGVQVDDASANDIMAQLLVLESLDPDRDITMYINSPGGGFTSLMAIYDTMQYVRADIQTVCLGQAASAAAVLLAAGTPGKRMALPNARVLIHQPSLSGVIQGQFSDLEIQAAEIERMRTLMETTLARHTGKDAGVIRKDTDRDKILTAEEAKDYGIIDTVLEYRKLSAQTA
UniProt I6X8D2, whole entry: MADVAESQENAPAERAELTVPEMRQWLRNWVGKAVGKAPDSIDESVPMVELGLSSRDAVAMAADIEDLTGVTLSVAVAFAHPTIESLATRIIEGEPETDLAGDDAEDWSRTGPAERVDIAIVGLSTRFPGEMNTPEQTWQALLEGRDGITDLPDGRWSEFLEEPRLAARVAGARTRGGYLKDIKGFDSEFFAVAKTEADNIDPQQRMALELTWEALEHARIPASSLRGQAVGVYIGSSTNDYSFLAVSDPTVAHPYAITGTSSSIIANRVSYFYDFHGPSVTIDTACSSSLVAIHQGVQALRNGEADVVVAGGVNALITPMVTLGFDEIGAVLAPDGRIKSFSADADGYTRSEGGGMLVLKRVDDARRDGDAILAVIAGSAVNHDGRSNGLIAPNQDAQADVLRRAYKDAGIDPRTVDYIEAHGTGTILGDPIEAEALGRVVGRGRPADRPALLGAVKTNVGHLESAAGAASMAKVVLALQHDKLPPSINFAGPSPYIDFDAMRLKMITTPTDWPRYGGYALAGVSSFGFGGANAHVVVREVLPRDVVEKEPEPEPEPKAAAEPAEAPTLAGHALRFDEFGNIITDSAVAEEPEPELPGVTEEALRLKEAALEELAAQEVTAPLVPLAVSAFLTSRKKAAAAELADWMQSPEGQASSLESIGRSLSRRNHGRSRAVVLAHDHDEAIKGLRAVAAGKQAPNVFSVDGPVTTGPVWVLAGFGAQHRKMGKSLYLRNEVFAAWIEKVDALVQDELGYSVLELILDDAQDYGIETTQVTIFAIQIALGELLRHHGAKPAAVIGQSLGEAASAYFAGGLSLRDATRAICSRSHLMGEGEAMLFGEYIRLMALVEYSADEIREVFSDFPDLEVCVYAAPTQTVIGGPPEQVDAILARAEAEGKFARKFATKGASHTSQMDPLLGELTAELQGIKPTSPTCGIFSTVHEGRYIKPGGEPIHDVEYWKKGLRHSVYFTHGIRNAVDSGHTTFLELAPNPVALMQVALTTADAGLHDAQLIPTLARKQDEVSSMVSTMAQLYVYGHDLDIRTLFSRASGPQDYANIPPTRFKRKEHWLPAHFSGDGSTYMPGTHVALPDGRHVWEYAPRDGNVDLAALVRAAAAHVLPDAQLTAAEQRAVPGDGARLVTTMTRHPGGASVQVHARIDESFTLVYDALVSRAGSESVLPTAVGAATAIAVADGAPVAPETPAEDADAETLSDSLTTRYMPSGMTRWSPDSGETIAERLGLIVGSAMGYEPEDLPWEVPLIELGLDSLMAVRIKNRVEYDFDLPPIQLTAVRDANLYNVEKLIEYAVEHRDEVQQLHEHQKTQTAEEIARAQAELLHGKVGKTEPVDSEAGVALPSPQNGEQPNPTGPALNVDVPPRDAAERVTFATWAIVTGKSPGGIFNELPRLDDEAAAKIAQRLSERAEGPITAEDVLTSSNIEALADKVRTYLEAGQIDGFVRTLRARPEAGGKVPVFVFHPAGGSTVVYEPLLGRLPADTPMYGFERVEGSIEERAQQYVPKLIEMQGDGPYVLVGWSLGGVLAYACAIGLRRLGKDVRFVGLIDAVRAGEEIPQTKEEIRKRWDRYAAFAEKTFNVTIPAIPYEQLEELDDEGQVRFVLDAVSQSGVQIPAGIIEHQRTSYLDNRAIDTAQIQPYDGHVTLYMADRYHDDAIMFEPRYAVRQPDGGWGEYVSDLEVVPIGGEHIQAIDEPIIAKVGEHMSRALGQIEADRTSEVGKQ
UniProt Q8IDJ8, 1-583: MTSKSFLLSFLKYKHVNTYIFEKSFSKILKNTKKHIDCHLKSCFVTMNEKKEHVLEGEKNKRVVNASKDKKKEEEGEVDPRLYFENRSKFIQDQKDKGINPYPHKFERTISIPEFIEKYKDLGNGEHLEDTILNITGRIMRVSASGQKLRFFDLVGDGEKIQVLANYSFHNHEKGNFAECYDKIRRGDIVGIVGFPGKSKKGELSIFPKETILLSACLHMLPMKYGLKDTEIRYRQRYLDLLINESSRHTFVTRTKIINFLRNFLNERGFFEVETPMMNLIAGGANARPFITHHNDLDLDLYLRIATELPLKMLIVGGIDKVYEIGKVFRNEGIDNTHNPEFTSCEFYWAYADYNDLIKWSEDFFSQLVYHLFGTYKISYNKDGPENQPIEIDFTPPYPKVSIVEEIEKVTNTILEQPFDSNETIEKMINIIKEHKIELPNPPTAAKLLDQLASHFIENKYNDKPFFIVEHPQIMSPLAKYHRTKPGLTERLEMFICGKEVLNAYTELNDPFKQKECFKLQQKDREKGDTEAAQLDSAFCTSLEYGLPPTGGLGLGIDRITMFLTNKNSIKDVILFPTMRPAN

Each number is a percent effect as filed. The record does not define 0% and 100%; most values in the screen are far below 50% and negative numbers occur (in some assays of this library far below -100). The compounds are a random part of those screened. Two or more numbers in one place are separate tests of the same structure; such repeats can differ widely. A dash means the value is not listed here; it may have been measured.

ClpP1P2: 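Protease assay of ClpP1P2, read by the AMC dye that it sets free. Target: ClpP1P2, Mycobacterium tuberculosis (UniProt P9WPC5 and UniProt P9WPC3). Tested at 50 µM. Higher reads as stronger inhibition, judged from the few compounds that gave an IC50. Most other retested compounds had strongly negative values. Size under these conditions: about 69,000 compounds, about 10 of them at 50% or above in at least one test.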
Leishmania in macrophages: 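Cell assay of Leishmania donovani living inside macrophages; the read-out is not stated. Concentration: 30 µM. Direction is inferred from retests: higher values go with stronger inhibition. Size under these conditions: about 69,000 compounds, about 1,000 of them at 50% or above in at least one test.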
Pks13 thioesterase: 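Polyketide synthase Pks13, Mycobacterium tuberculosis (UniProt I6X8D2). Enzyme assay of the thioesterase domain of polyketide synthase 13; the read-out is not stated. Tested at 30 µM. Higher reads as stronger inhibition (inferred from which compounds were picked for retests). Of about 67,000 compounds tested this way, about 300 (0.46%) reached 50% or more in at least one test.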
PfKRS1: 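Enzyme assay of the cytosolic lysyl-tRNA synthetase in 384-well plates, read by luminescence. Target: Lysine-tRNA ligase, Plasmodium falciparum 3D7 (UniProt Q8IDJ8). Compounds at 30 µM. Direction is inferred from only a few compounds that gave an IC50; most scored high, so higher reads as stronger inhibition. Size under these conditions: about 69,000 compounds, about 49 of them at 50% or above in at least one test.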
Toxoplasma: 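Assay of Toxoplasma gondii numbers, read through their beta-galactosidase reporter with a colour substrate. Tested at 10 µM. Higher reads as fewer parasites (inferred from which compounds were picked for retests). Size under these conditions: about 67,000 compounds, about 260 of them at 50% or above in at least one test.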

structure,ClpP1P2,Leishmania in macrophages,Pks13 thioesterase,PfKRS1,Toxoplasma
Cc1n[nH]c(C)c1C1COCCN1C(=O)c1cccc(F)c1F (configuration not stated),-19.25,1.493,-11.26,0.7162,11.19
Cc1ncccc1CNCC1CCCN1c1cccnn1 (configuration not stated),-4.094,40.04,-22.57,-1.447,-10.18
CCC(=O)Nc1cccc(OCC(=O)N(C)Cc2cc(COC)[nH]n2)c1,-1.105,31.28,-1.034,3.848,-0.1729
Cc1ccc(-c2nc(CN3CCCC(Cn4cncn4)C3)cs2)o1 (configuration not stated),-16.19,33.86,-11.98,-0.5011,-2.746
[H][C@@]12CN(Cc3nccs3)C[C@]1([H])CN(C(=O)C1CCOC1)C2 (some centres not stated),-,-67.48,-,-,-0.4841
O=S(=O)(CC1CCCCO1)Nc1cnn(CC(F)F)c1 (configuration not stated),0.9003,-4.062,-9.187,7.774,2.614
O=C(NCc1ccnc(OCC2CC2)c1)C1Cc2ccccc2O1 (configuration not stated),-1.511,7.093,-49.15,5.323,9.409
Cc1cccc(CNC2CCCc3c2cnn3Cc2ccccc2)c1 (configuration not stated),-22.28,-,-4.806,0.3176,-
Cc1nn(C)cc1CN1C[C@@H]2CC[C@H](C1)N(Cc1c(C)noc1C)C2=O,16.4,-,-10.06,-6.591,-
Cc1cc(N(Cc2cccs2)C2CC2)n2nc(C(F)(F)F)nc2n1,-1.354,38.93,-170.1,4.266,-8.37
O=C(Cc1cccnc1)N1CCC2(CC1)CCN(C1CCOCC1)CC2.O=C(O)C(F)(F)F.O=C(O)C(F)(F)F,-,26.37,-,-,2.23
Cc1ccc(-c2nc(CNCC3CN(C)CCO3)co2)c(C)c1 (configuration not stated),3.82,37.25,-7.791,0.429,-18.84
CC(SCCC(=O)NC(N)=O)c1ccc(F)cc1F (configuration not stated),2.922,23.17,-32.37,2.615,-3.598
O=C(O)C(F)(F)F.[H][C@@]12CCN(Cc3cc(C)on3)C[C@]1(C(=O)NCCOC)CCO2,-,16.59,-,-,-0.1765
Cc1ccc([C@@H]2CN(C(=O)c3ccon3)C[C@H]2NC(=O)C2CC2)cc1,12.19,7.687,2.35,7.498,-1.274
CCc1nccn1C1CCCN(C(=O)c2ccnc(N(C)C)c2)C1 (configuration not stated),-12.22,20.58,1.216,-3.739,2.245
O=C(c1ccnnc1)N1C[C@H]2CCC[C@@]2(COCC2CCOCC2)C1,8.681,-,-28.89,-0.03493,-
O=C(CCNC1(c2nccs2)CCCC1)N1CCOCC1,-4.308,15.13,-17.19,2.529,1.418
CN(CCNC(=O)N1CCN(Cc2ccon2)CC1)C1CCCC1,-13.78,10.71,-7.388,2.18,-4.295
O=C(O)C(F)(F)F.[H][C@@]12CO[C@@H](CNS(C)(=O)=O)[C@]1([H])CCN(Cc1ccccc1)C2,-,13.67,-,-,10.06
CCS(=O)(=O)N1CCN(Cc2ccncc2)c2nc(C)ccc2C1,-0.1241,-,-10,5.922,-
O=C(NCc1nncn1-c1ccccc1)C1CC1,-15.77,21,-10.54,2.731,18.43
Cc1ccc(OCCSCCn2nc3ccccn3c2=O)cc1,-4.656,5.083,-8.014,5.464,0.9984
CN(Cc1cccc(F)c1)C(=O)CN1CCCC(Cn2cncn2)C1 (configuration not stated),-8.89,-6.77,4.309,-2.314,-3.058
COc1cc(C2SCC(=O)Nc3n[nH]cc32)cc(OC)c1O (configuration not stated),-0.1062,19.71,4.181,5.996,-20.64
Cn1c(CCCNC(=O)Nc2cn[nH]c2)nc2ccccc21,-9.393,26.48,10.02,0.4265,4.154
O=C(c1ccc(O)nc1)N1CCC(Nc2cccnn2)CC1,-26.31,4.704,-16.12,1.775,-9.613
O=C(NC1CC1)[C@H]1C[C@H]2OCC[C@H]2N(Cc2cccnc2)C1,-2.598,-,1.161,8.315,-
Cc1ccsc1CN1CCCC(CNC(=O)c2ccc(N)nc2)C1 (configuration not stated),5.127,14.48,-33.44,1.177,-5.166
CCCc1ccc(CN2CCN(C(=O)CC(C)C)[C@@H]3CS(=O)(=O)C[C@@H]32)o1,-11.36,-,-12.9,21.62,-
Fc1ccc2[nH]c(C3CCCN3CCCn3cccn3)nc2c1 (configuration not stated),-31.05,2.015,-1.85,0.07574,8.66
CSCCC(C)(O)CNC(=O)c1ccsc1 (configuration not stated),-9.23,20.14 & 10.48,-12.18,3.52,-10.04
O=C(O)C(F)(F)F.O=C(O)C(F)(F)F.c1ccc(OCc2nnc3n2CCN(CC2CCOCC2)C3)nc1,-,-42.94,-,-,-10.84

For reference, 4 entries once more:

structure,ClpP1P2,Leishmania in macrophages,Pks13 thioesterase,PfKRS1,Toxoplasma
Cc1cccc(CNC2CCCc3c2cnn3Cc2ccccc2)c1 (configuration not stated),-22.28,-,-4.806,0.3176,-
CCC(=O)Nc1cccc(OCC(=O)N(C)Cc2cc(COC)[nH]n2)c1,-1.105,31.28,-1.034,3.848,-0.1729
Cc1ccc([C@@H]2CN(C(=O)c3ccon3)C[C@H]2NC(=O)C2CC2)cc1,12.19,7.687,2.35,7.498,-1.274
O=C(NC1CC1)[C@H]1C[C@H]2OCC[C@H]2N(Cc2cccnc2)C1,-2.598,-,1.161,8.315,-

Measurements from “University of Dundee, Small-Polar-MMV Screening Library” (2021), ChEMBL document CHEMBL3988442.